Reference: PubChem BioAssay AID1159584 (Peter MacCallum Cancer Centre, 2016)

- Purpose: 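Genes that CDH1-null MCF10A cells selectively depend on to survive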 (primary screen)
- Cells: human MCF10A breast epithelial cells, parental and CDH1-null
- Knock-down reagent: siRNA against human genes
- Measured: 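Cell viability by CellTiter-Glo ATP luminescence, each line scaled to the mean of mock wells across plates, then CDH1-null over parental ratio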
- Reading the numbers: CDH1-null / parental viability ratio: higher = CDH1-null cells survive relatively better than parental; CDH1-null viability vs mock: higher = more viable CDH1-null cells; parental viability vs mock: higher = more viable parental cells
The deposit covers about 18,000 reagents; this is an unselected part. The record does not give: the amount of reagent, the time to read-out.

target,CDH1-null / parental viability ratio,CDH1-null viability vs mock (fraction of mock),parental viability vs mock (fraction of mock)
RLIM,1,0.98,0.98
RGS21,0.9,1.06,1.18
CTH,0.89,0.89,1
AIM2,1.22,1.1,0.9
MROH8,1.07,0.94,0.88
NFATC3,1.2,1.15,0.96
TBX18,0.95,0.74,0.78
FZD9,0.89,0.84,0.94
TAGAP,1.39,0.64,0.46
MTSS2,1.05,0.99,0.94
DPPA5,0.72,0.66,0.92
SPINK9,0.91,0.84,0.92
KCNN2,1.24,1.04,0.84
SAT2,0.9,0.92,1.02
GPR173,0.86,0.78,0.91
PLLP,1.05,0.63,0.6
ZMAT4,1.01,1.1,1.09
PCED1A,1.05,0.61,0.58
DDX42,1.15,0.78,0.68
H3C14,0.74,0.52,0.7
AQP8,1.18,0.85,0.72
FRMPD2,0.92,0.78,0.85
OR52N1,1.06,0.72,0.68
CA12,0.98,0.94,0.96
NVL,0.81,0.55,0.68
ENOX2,0.92,0.66,0.72
SELENOP,1.22,0.94,0.77
PDPN,1,1.15,1.15

2 successive records already listed:
target,CDH1-null / parental viability ratio,CDH1-null viability vs mock (fraction of mock),parental viability vs mock (fraction of mock)
OR52N1,1.06,0.72,0.68
CA12,0.98,0.94,0.96
